Test results published in patent US20210346359A1, “Use of CFTR Modulators For Treating Cerebrovascular Conditions” (Qanatpharma AG, priority 2018, published 2021).
Where “and” joins values, the source holds several entries; their conditions need not be identical. Identical values can stand only once.

Tests used:
[1] = tested on: posterior cerebral arteries; assay: Phenylephrine responses of isolated posterior cerebral arteries; format: in vivo, mouse
Experimental: (§1) Isolation and functional assessment of resistance arteries: Mouse olfactory (a first branch of the anterior cerebral artery) and PCAs were carefully dissected, cannulated onto micropipettes, stretched to their in vivo lengths and pressurized to 45 mmHg, as previously described (3,6); mouse skeletal muscle resistance arteries were dissected from the cremaster muscle, cannulated and pressurized to 60 mmHg. All functional experiments were conducted in 3-morpholinopropanesulfonic acid (MOPS) buffered saline at 37° C. with no perfusion. Vasomotor responses to phenylephrine (5 μmol/L for posterior cerebral arteries, 10 μmol/L for cremaster skeletal muscle arteries) provided an assessment of vessel viability at the beginning and end of each experiment. Arteries failing to show ≥25% constriction to phenylephrine were excluded.
(§2) Myogenic tone was calculated as the percent constriction in relation to the maximal diameter at each respective transmural pressure: tone (% of diamax)=[(diamax−diaactive)/diamax]×100, where diaactive is the vessel diameter in MOPS containing Ca^2+ and diamax is the diameter in Ca^2+-free MOPS. Analyses of vasomotor responses to phenylephrine used the same calculation, only in this case, diaactive represents the vessel diameter at steady state following application of the given agent and diamax represents the maximal diameter measured under Ca^2+-free conditions.

[2] = tested on: posterior cerebral arteries; assay: Myogenic tone of isolated posterior cerebral arteries after in vivo treatment; set-up: species or system mouse
From the text: Myocardial infarction: HF was induced by surgical ligation of the left anterior descending coronary artery (3). Briefly, mice were anaesthetized with isoflurane, intubated with a 20-gauge angiocatheter and ventilated with room air. Under sterile conditions, the thorax and pericardium were opened, and the left anterior descending coronary artery was permanently ligated with 7-0 silk suture (Deknatel: Fall River, USA). In sham-operated controls, the thorax and pericardium were opened, but the left anterior descending coronary artery was not ligated. Following the procedure, the chest was closed and the mice were extubated upon spontaneous respiration. Posterior cerebral arteries (PCAs) were isolated 4-6 weeks post-infarction. […]
(§3) Myogenic responses were elicited by step-wise 20 mmHg increases in transmural pressure from 20 mmHg to 80 mmHg (olfactory arteries) or 100 mmHg (posterior cerebral arteries and cremaster skeletal muscle resistance arteries). At each pressure step, vessel diameter (diaactive) was measured once a steady state was reached (5 min). Vessels requiring treatment (e.g., CFTR(inh)-172) were incubated with the reagent in MOPS for 30 min and myogenic responses were then assessed in the presence of that reagent. Following completion of all diaactive measurements, MOPS buffer was replaced with a Ca^2+-free version and maximal passive diameter (diamax) was recorded at each pressure step.
as §2

[3] = tested on: olfactory cerebral arteries; assay: Myogenic tone of isolated olfactory cerebral arteries after in vivo treatment; set-up: species or system mouse
Experimental: Induction of Subarachnoid Hemorrhage: A well-characterized model of experimental SAH (6) was used. Briefly, each mouse was anaesthetized (isoflurane) and its head was fixed in a stereotactic frame: a 7 mm incision was made along the midline of the anterior scalp and 0.9 mm hole drilled into the skull 4.5 mm anterior to the bregma. A spinal needle was advanced to the chiasmatic cistern: 80 μl of arterial blood was injected into the intracranial space over 10 seconds. […] Following injection, the scalp incision was closed. Buprenorphine (0.05 mg/kg; 0.5-1.0 ml volume) was administered twice/day (initiated immediately following the SAH surgical procedure). Sham-operated animals underwent an identical surgical procedure, with sterile saline injected instead of blood. Olfactory cerebral arteries were isolated at 2 days post-SAH induction.
as §1, with “Vasomotor responses to phenylephrine (5 μmol/L for posterior cerebral arteries, 10 μmol/L for cremaster skeletal muscle arteries) provided an assessment of vessel viability at the beginning and end of each experiment. Arteries failing to show ≥25% constriction to phenylephrine were excluded.” left out
as §3, §2

Compound | mean maximal vessel diameter at 45 mmHg (diamax) ([1]; HF+C18 group, FIG. 11) | mean maximal vessel diameter at 45 mmHg (diamax) ([1]; Sham+C18 group, FIG. 12 second panel (phenylephrine)) | mean maximal vessel diameter at 45 mmHg (diamax) ([2]; CFTR KO+C18 group) | mean maximal vessel diameter at 45 mmHg (diamax) ([2]; HF+C18 group, FIG. 3) | mean maximal vessel diameter at 45 mmHg (diamax) ([2]; Sham+C18 group, FIG. 12 Panel A (myogenic tone)) | mean maximal vessel diameter at 45 mmHg (diamax) ([3]; CFTR KO+C18 group) | mean maximal vessel diameter at 45 mmHg (diamax) ([3]; SAH+C18 group) | mean maximal vessel diameter at 45 mmHg (diamax) ([3]; Sham+C18 group) | mean maximal vessel diameter at 45 mmHg (diamax) ([3]; SAH+Lum group)
O=C(Nc1ncc(C(c2ccccc2Cl)N2CCC(O)C2)s1)C1(c2ccc3c(c2)OCO3)CC1 (stereo not drawn) [C18, 1-(benzo[d][1,3]dioxol-5-yl)-N-(5-((2-chlorophenyl)(3-hydroxypyrrolidin-1-yl)methyl)thiazol-2-yl)cyclopropanecarboxamide] | 140±8 pm | 130±10 μm | 145±5 μm | 155±8 μm | 138±9 μm | 96±6 μm | 104±12 μm and 105±12 μm | 110±8 pm | 
Cc1ccc(NC(=O)C2(c3ccc4c(c3)OC(F)(F)O4)CC2)nc1-c1cccc(C(=O)O)c1 [lumacaftor] |  |  |  |  |  |  |  |  | 87±4 μm
